Assay results reported in patent US20110081317A1, “Enhancing Gene Transfer” (UNIVERSITY OF ROCHESTER, priority 2007, published 2011).
Some of these results come from one statement about several compounds together.

Key:
COS cells = assay: Phage-mediated luciferase gene transfer in COS cells; type: cell-based, simian; conditions: WT and Tpell phage, MOI 1×10^6, lactacystin 3 μM, bortezomib 10 nM for 16 h, luciferase at 48 h
Method: Preparation of bacteriophage lambda lysogens and vector production. The λD1180(luc) lysogen (Dam15 del EcoRI-Sac1 clts857 nin5 Sam100) has been described (Eguchi et al., J. Biol. Chem. 276(28):26204-10, 2001). The λD1180(luc) phage contains a firefly luciferase reporter gene under the regulatory control of the human cytomegalovirus immediate-early promoter. λD1180(luc) phage particles were prepared from E. coli lysogens that were stably transformed with either a plasmid encoding wildtype gpD or plasmids encoding gpD fusion proteins of interest, as described (Zanghi et al., Nucleic Acids Res. 33(18):e160, 2005). λ(luc) particles were purified by CsCl density gradient centrifugation and titered on LE392 E. coli cells (Zanghi et al., Nucleic Acids Res. 33(18):e160,2005).
Cells lines and phage transduction. Human embryonic kidney (HEK) 293 cells and COS simian kidney cells were obtained from American Type Culture Collection (ATCC), P.O. Box 1549, Manassas, Va. 20108. Cells were cultured in Dulbecco's Modified Eagle's Medium (DMEM) containing 10% fetal bovine serum, plus 2 mM L-glutamine and 100 U/ml penicillin, 100 μg/ml streptomycin. […] Protein content in the lysates was quantitated by Bradford assay, and equal amounts of lysate (normalized in terms of protein content) were used in luciferase assays. […]

COS-7 cells = assay: Adenovirus vector (AdLucGFP) mediated luciferase gene transfer in COS-7 cells; type: cell-based; conditions: AdLucGFP MOI 10, paclitaxel 20 μg/ml or nocodazole 5 μM added 30 min before transduction, lysis at 48 h
Method: FIG. 13 is a graph showing, in cells treated with paclitaxel, nocodazole, or latrunculin A, adenoviral-mediated luciferase gene transfer. Latrunculin A ([…]), paclitaxel (20 μg/ml), or nocodazole (5 μM) was added to cells 30 minutes prior to transduction of COS-7 cells with a luciferase-expressing adenovirus vector (AdLucGFP) at a multiplicity of infection (MOI) of 10. Media were changed 24-hours post-transfection, and cells were lysed in Passive Lysis Buffer 24 hours later. Protein quantities were standardized and luciferase activity was measured in the cell lysates. The mean control level is shown as Ad only.
Latrunculin A (120 nM), paclitaxel (Taxol® (Bristol Meyers Squibb, Princeton, N.J.), 20 μg/ml), or nocodazole (5 μM) was added to cells 30 minutes prior to transduction of COS-7 cells with a luciferase-expressing adenovirus vector (AdLucGFP) at a multiplicity of infection (MOI) of 10. Media were changed 24-hours post-transfection, and cells were lysed in Passive Lysis Buffer 24 hours later. Protein quantities were standardized and luciferase activity was measured in the cell lysates.

[1] = tested on: COS cells stably transfected with Fc receptor (CD64) and its associated gamma chain; assay: Luciferase gene transfer by lambda phage:antibody complexes in cells expressing Fc receptor CD64; type: cell-based; conditions: nocodazole 5 μM or paclitaxel 20 μg/ml, 30 min pretreatment and continuous presence; luciferase at 48 h

In the case of `CC(C)C[C@H](NC(=O)[C@H](Cc1ccccc1)NC(=O)c1cnccn1)B(O)O` [bortezomib], the “enhancement of phage-mediated luciferase expression” value (COS cells) is reported as 2-4 fold.

With `COC(=O)Nc1nc2ccc(C(=O)c3cccs3)cc2[nH]1` [nocodazole] the “increase in adenoviral gene transfer efficiency” value (COS-7 cells) was 4-5 fold and the “increase in gene transfer efficiency (phage:antibody complexes)” value [1] was 10-50 fold.

With `CC(=O)O[C@H]1C(=O)[C@@]2(C)[C@H]([C@H](OC(=O)c3ccccc3)[C@]3(O)C[C@H](OC(=O)[C@H](O)[C@@H](NC(=O)c4ccccc4)c4ccccc4)C(C)=C1C3(C)C)[C@]1(OC(C)=O)CO[C@@H]1C[C@@H]2O` [paclitaxel] the “increase in adenoviral gene transfer efficiency” value (COS-7 cells) was 4-5 fold and the “increase in gene transfer efficiency (phage:antibody complexes)” value [1] was 10-50 fold.

With `CC(=O)N[C@@H](CSC(=O)[C@]1([C@@H](O)C(C)C)NC(=O)[C@H](C)[C@@H]1O)C(=O)O` [lactacystin] the “enhancement of phage-mediated luciferase expression” value (COS cells) was 2-4 fold.
